Experimental data published in publication PMC12040169 (PLOS Biology, 2025).
This is one part of the list.

System: T1, CTL2-GFP (C. trachomatis L2/434/Bu, GFP-expressing)
T1 construct: L2/434/Bu, GFP-expressing
Parameters: species or system HeLa; Intracellular C. trachomatis growth in HeLa cells, bulk GFP fluorescence relative to DMSO
Conditions: bulk GFP, single well; 28.5 h, 10 µM; inhibitor

First: O=C(c1ccc2occc2c1)N1CCCC2(CCN(C(=O)c3cc(F)c(F)cc3F)C2)C1 (stereo not drawn) [CBK137071]
Second: COc1ccc(C(=O)N2CCC3(CCCN(C(=O)CN4C(=O)CSC4=O)C3)C2)cc1OC (stereo not drawn) [CBK137088]
The “% of control remaining” value of the first is higher: 142.803% for the first, 85.3313% for the second.

Going from Cc1nn2c(c1-c1ccccc1)NC(=O)CC2C(=O)O (stereo not drawn) [CBK287118] to Cc1ccc(NC(=O)C2CC(=O)Nc3nc(SCc4ccccc4C)[nH]c(=O)c32)c(C)c1 (stereo not drawn) [CBK294438], the “% of control remaining” value rises from 129.793% to 149.734%.

Compared with O=C1NC2(CCC2)C(=O)N1Cc1coc(-c2cccs2)n1 [CBK305209], O=C(Cn1c(-c2cccs2)cc2cccnc21)NC1CC1 [CBK282552] is higher in “% of control remaining” value: 99.9361% for the first, 125.742% for the second.

Compared with O=C(Nc1ccccc1)c1ccccc1OCc1ccc(S(=O)(=O)N2CCOCC2)cc1 [CBK267396], O=C(Cc1cccc2ccccc12)NC(=S)Nc1ccc(S(=O)(=O)N2CCCCC2)cc1 [CBK266283] is lower in “% of control remaining” value: 117.604% for the first, 104.708% for the second.

Compared with CSc1ccccc1CNC(=O)c1cc(Br)cnc1N(C)S(C)(=O)=O [CBK076529], CN(C)C(=O)NCCNC(=O)c1c[nH]nc1-c1cc2ccccc2o1 [CBK306157] is higher in “% of control remaining” value: 117.481% for the first, 124.074% for the second.

Going from CC(C)[C@@H](CO)Nc1nc(-c2ccc3ccccc3c2)cn2ccnc12 [CBK037445] to c1ccc(CNc2nc(-c3ccco3)cn3ccnc23)cc1 [CBK037955], the “% of control remaining” value rises from 127.818% to 187.644%.

First: NC(=O)C1CCN(S(=O)(=O)c2ccc([N+](=O)[O-])cc2)CC1 [CBK261455]
Second: O=C(NCN1CCN(c2ccc([N+](=O)[O-])cc2)CC1)c1cccnc1 [CBK264909]
The “% of control remaining” value of the first is higher: 108.217% for the first, 94.266% for the second.

Going from CCN(CC)CCOC(=O)c1oc2c3c(ccc2c1C)OCCO3 [CBK008676C] to COC(=O)COc1ccc(S(=O)(=O)NCc2ccc3c(c2)OCO3)cc1C [CBK267172], the “% of control remaining” value rises from 90.9849% to 182.212%.

Going from COc1ccc(C)cc1NS(=O)(=O)c1cc(I)c2occc2c1 [CBK078531] to CCc1cc(Br)ccc1S(=O)(=O)Nc1ccnn1CC [CBK044900], the “% of control remaining” value rises from 112.452% to 120.312%.

Going from CCOCCn1c(N2CC(C)CC(C)C2)nc2c1c(=O)[nH]c(=O)n2C (stereo not drawn) [CBK306200] to CCc1cccc2c(CN3CCc4nc(C)[nH]c(=O)c4C3)c[nH]c12 [CBK283931], the “% of control remaining” value rises from 90.3407% to 146.943%.

First: COC(=O)c1ccc(C)c(N(CCO)CCO)c1 [CBK262418]
Second: COC(=O)c1ccc(-c2ccc3[nH]ccc3c2)nc1 [CBK160174T]
The “% of control remaining” value of the first is higher: 125.595% for the first, 116.048% for the second.

Going from CN1CCCC1CCOc1ncccc1OCCO (stereo not drawn) [CBK039176] to O=C(c1cccc(F)c1)N1CCCC1c1cc2cccnc2[nH]1 (stereo not drawn) [CBK285081], the “% of control remaining” value rises from 103.205% to 126.681%.

First: CCOC(=O)CNS(=O)(=O)c1ccc(C(F)(F)F)cc1[N+](=O)[O-] [CBK034446]
Second: CCOC(=O)c1ccccc1NS(=O)(=O)c1ccc(C(F)(F)F)cc1[N+](=O)[O-] [CBK050584]
The “% of control remaining” value of the first is lower: 83.7461% for the first, 97.9973% for the second.

Compared with COC(=O)[C@@H](NC(=O)C1CCN(C(=O)OCc2ccccc2)CC1)c1ccccc1 [CBK081468], Cc1ccc(C(NC(=O)C2CCN(Cc3ccc(Cl)cc3)CC2)c2ccccn2)cc1 (stereo not drawn) [CBK148007] is higher in “% of control remaining” value: 109.538% for the first, 125.183% for the second.

Compared with O=C1/C(=C/c2ccc(OCc3ccccc3Cl)c(Cl)c2)SC(=S)N1Cc1cccnc1 [CBK264702], O=C1NC(=S)S/C1=C\c1cn(-c2ccccc2)nc1-c1ccc(OCc2ccccc2)cc1 [CBK265496] is higher in “% of control remaining” value: 100% for the first, 139.451% for the second.

Compared with C=CCn1c2cc(C)sc2c2cnn(CC(=O)N(C)C)c(=O)c21 [CBK284164], Cc1cc(=O)n(CC(=O)NCCn2ccnc2)c2ccccc12 [CBK281583] is lower in “% of control remaining” value: 116.344% for the first, 103.34% for the second.

Going from O=C(COc1ccc(Cl)cc1Br)NNC(=O)c1ccc(O)cc1 [CBK262950] to COc1ccc(Cl)cc1NC(=O)Nc1ccc(C(=O)N2CCOCC2)cc1 [CBK266958], the “% of control remaining” value rises from 125.537% to 182.736%.

Going from O=C(Nc1cccc(-c2cccc(F)c2)c1)c1ccccc1Cn1cncn1 [CBK285735] to O=C(Nc1ncc(-c2ccccc2)s1)c1cccc([N+](=O)[O-])c1 [CBK157055], the “% of control remaining” value falls from 108.903% to 40.5529%.

First: COc1ccnc(N2CCN(C(=O)c3cnn(C)c3C3CC3)CC2)n1 [CBK304900]
Second: CCCN1CCN(c2ncc(CNS(=O)(=O)c3ccc(Cl)cc3)cn2)CC1 [CBK010261]
The “% of control remaining” value of the first is higher: 131.279% for the first, 108.007% for the second.

Compared with CNC(=O)c1sc2ccccc2c1C1CN(Cc2cn(C)c3cc(OC)ccc23)CCO1 (stereo not drawn) [CBK286087], O=C(O)c1cccc(-c2ccc(/C=N/NC(=O)c3sc4ccccc4c3Cl)o2)c1 [CBK263863] is higher in “% of control remaining” value: 110.859% for the first, 140.435% for the second.

First: CCSc1nnc(-c2cccc(C)c2)n1CC1CCCCC1 [CBK085419]
Second: Cc1nc2c(OCc3ccccc3)cccn2c1N(C)C(=O)C1CCCCC1 [CBK147884]
The “% of control remaining” value of the first is lower: 106.581% for the first, 109.633% for the second.

Compared with CCOc1ccc(Cl)cc1CCNC(=O)NC(C)c1nnnn1C (stereo not drawn) [CBK305923], Cc1nccn1CCNC(=O)CCc1nc2ccccc2n1C [CBK281978] is lower in “% of control remaining” value: 141.546% for the first, 115.234% for the second.

Compared with O=C(COc1ccc(S(=O)(=O)N2CCCCC2)cc1Cl)N1CCc2ccccc2C1 [CBK269510], O=C1Nc2ccc(-c3cccc(C(F)(F)F)c3)cc2C(=O)N2CCN(C(=O)C3CC3)C[C@H]12 [CBK289585] is lower in “% of control remaining” value: 144.088% for the first, 125.976% for the second.

Compared with O=C(NCc1ccc(F)cc1)Nc1ccccc1F [CBK115584], O=C(Cc1c(F)cccc1F)Nc1ccc2[nH]ccc2c1 [CBK144712] is higher in “% of control remaining” value: 108.813% for the first, 159.064% for the second.

Compared with CN(C)c1ccccc1-c1cc(Nc2ccc3cn[nH]c3c2)ncn1 [CBK090850], Cc1nc2cc(/N=C/c3c[nH]c4ccccc34)ccc2n1C [CBK262085] is lower in “% of control remaining” value: 143.522% for the first, 100% for the second.

Compared with O=C(CCn1c(C(F)(F)F)cc2cccnc21)N1CCC(O)CC1 [CBK284887], CN(C)C(=O)c1ccc(-c2ccc(OC3CCN(C(=O)CCc4cccnc4)CC3)nc2)cc1 [CBK155049] is lower in “% of control remaining” value: 140.757% for the first, 124.855% for the second.

First: CCN(CC)C(=O)c1sccc1NS(=O)(=O)Cc1ccccc1 [CBK050393]
Second: CCc1nc2ccc(C(=O)N(C)Cc3ccccc3)cn2c1N(C=O)CC [CBK145936]
The “% of control remaining” value of the first is lower: 82.6065% for the first, 121.631% for the second.

First: NS(=O)(=O)c1ccc(/N=C/c2cccc(O)c2O)cc1 [CBK261533]
Second: Cc1cccc(N(CC(=O)Nc2ccc3c(c2)oc2ccccc23)S(=O)(=O)c2ccccc2)c1 [CBK264813]
The “% of control remaining” value of the first is lower: 106.188% for the first, 133.373% for the second.

Going from COc1cc(C2C(C#N)=C(N)OC3=C2C(=O)CC(c2ccccc2)C3)cc(Br)c1O (stereo not drawn) [CBK261587] to c1ccc(C(NCc2nnc(-c3ccco3)o2)C2CCC2)cc1 (stereo not drawn) [CBK305818], the “% of control remaining” value rises from 100% to 160.613%.

Compared with COc1ccc(NC(=O)c2ccc(-c3nnn[nH]3)cc2)cc1OC [CBK295138], CC(C)(C)c1ccc(-c2cc3ncccc3nc2N)cc1 [CBK081199] is lower in “% of control remaining” value: 146.587% for the first, 115.88% for the second.

Going from Fc1ccccc1C1CCN(c2cncc(N3CCNCC3)n2)CC1 [CBK172236G] to CCCC/C=C/c1cncc(N2CCN(Cc3ccccn3)CC2)n1 [CBK066096], the “% of control remaining” value falls from 120.882% to 104.139%.

Going from CCn1cc(CN(CCN(C)C)Cc2ccc(C)o2)c(C)n1 [CBK282845] to Cn1ccnc1CN(CCCn1ccnc1)Cc1ccccc1F [CBK283022], the “% of control remaining” value falls from 135.011% to 80.676%.

First: CN1CCC2(CC1)CC(=O)c1cc(-c3ccc(C(=O)N(C)CCC#N)cc3)ccc1O2 [CBK156518]
Second: COc1ccc2c(c1)CC1(CCC(NCCCC(=O)c3ccc(F)cc3)CC1)C2 (stereo not drawn) [CBK016054C]
The “% of control remaining” value of the first is higher: 100.364% for the first, 100% for the second.

Going from CSc1ncc(Cl)c(C(=O)Nc2sc3c(c2C(=O)NCc2cccnc2)CCC3)n1 [CBK268710] to CCCCNC(=O)c1ccc2nc(CC)c(N(C)C(=O)C3CCCCC3)n2c1 [CBK145791], the “% of control remaining” value falls from 112.53% to 100%.

First: CC(=O)Nc1cc(I)cc(C(=O)O)c1 [CBK026452G]
Second: CC(C)(C)C(=O)c1cnc2sc3ccccc3n12 [CBK016512]
The “% of control remaining” value of the first is lower: 112.548% for the first, 142.262% for the second.

First: CCOC(=O)C1(C2CCCCC2)CCN(C(=O)c2cc(C)[nH]n2)CC1 [CBK137100]
Second: CN1CCC(N(C)C(=O)NCc2c(Cl)cccc2Cl)C1 (stereo not drawn) [CBK156014]
The “% of control remaining” value of the first is lower: 95.0358% for the first, 193.035% for the second.

First: COCc1nc(NCCCn2c(C)cccc2=O)cc(C2CCOC2)n1 (stereo not drawn) [CBK306845]
Second: Cc1c(C)n(Cc2ccco2)c2ncnc(NCCC(=O)O)c12 [CBK307564]
The “% of control remaining” value of the first is lower: 80.3412% for the first, 131.76% for the second.

Compared with Cc1ccc(Cn2cnc3c(cnn3-c3ccc(C)c(C)c3)c2=O)cc1 [CBK287540], O=C(CCc1nc2ccccc2s1)Nc1nc2ccccc2[nH]1 [CBK287988] is lower in “% of control remaining” value: 144.733% for the first, 109.44% for the second.

Compared with CCC(NC(=O)c1cc(CC(C)C)nn1CC)c1cn2cccnc2n1 (stereo not drawn) [CBK307505], CC(C)[C@H](CO)Nc1cncc(-c2cccc(N(C)C)c2)n1 [CBK065547] is higher in “% of control remaining” value: 136.539% for the first, 193.879% for the second.
